No constants are given. Whether binding was seen depends on the method and setting. In cells and extracts the contact can be indirect. Binding can be weak; no strength is given.
Target: T1, aspartate aminotransferase (GOT2) (not stated (cells of the IP not named; H9C2 in the neighbouring experiments)) (UniProt P00507)
T1 sequence: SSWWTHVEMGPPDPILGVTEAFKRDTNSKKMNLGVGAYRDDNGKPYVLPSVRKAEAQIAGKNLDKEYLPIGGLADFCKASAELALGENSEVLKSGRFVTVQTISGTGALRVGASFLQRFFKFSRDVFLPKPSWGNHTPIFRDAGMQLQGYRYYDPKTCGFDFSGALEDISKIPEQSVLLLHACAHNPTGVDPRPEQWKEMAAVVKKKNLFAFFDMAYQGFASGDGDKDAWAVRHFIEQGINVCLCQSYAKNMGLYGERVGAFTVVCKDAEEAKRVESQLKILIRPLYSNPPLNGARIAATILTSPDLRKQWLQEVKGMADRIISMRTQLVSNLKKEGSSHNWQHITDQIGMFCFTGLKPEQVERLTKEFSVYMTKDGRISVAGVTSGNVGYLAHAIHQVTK
Experiment: co-IP; IP of GOT2, partners detected by Western blotting; cells not named; X-ray or aloe emodin treatment

For ATG16L, which binding is on record?
Its binding is “binds”.

Reference: paper PMC11653682
